The values that follow come from publication PMC9450374.

These are yes or no findings as the source states them, for the method shown. In cells and extracts the contact can be indirect. Some binding calls cover weakened binding; strength is not graded here. Sequences can lack the tags named with a protein.

The assay concerns the target T1, Myc box-dependent-interacting protein 1 (BIN1) (human (endogenous in MIA PaCa-2)) (UniProt O00499).
T1 sequence: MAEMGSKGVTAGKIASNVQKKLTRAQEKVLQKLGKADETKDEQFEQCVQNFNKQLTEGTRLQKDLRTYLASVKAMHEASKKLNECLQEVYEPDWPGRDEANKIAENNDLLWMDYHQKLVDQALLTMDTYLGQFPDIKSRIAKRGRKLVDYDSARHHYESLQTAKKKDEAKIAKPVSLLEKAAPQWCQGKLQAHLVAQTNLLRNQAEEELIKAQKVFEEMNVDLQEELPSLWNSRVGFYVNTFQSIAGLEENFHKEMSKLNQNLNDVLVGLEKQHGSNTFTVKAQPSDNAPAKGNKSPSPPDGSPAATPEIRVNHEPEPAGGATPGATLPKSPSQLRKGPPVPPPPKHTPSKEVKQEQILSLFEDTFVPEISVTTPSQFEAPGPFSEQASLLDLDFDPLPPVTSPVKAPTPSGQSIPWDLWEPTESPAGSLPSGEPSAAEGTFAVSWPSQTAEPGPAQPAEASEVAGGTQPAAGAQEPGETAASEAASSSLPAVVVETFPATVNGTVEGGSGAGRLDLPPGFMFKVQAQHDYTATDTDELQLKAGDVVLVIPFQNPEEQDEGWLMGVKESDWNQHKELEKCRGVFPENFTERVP
As to the kind of experiment: co-IP; MIA PaCa-2 cell lysate; also in cells transfected with circPDK1-WT or circPDK1-MUT and with RNase R (100 U/ml); method as in ref. 19; which protein was precipitated is not given.

B1: UBE2O (enzyme, UniProt Q9C0C9 1-1292)
chain: MADPAAPTPAAPAPAQAPAPAPEAVPAPAAAPVPAPAPASDSASGPSSDSGPEAGSQRLLFSHDLVSGRYRGSVHFGLVRLIHGEDSDSEGEEEGRGSSGCSEAGGAGHEEGRASPLRRGYVRVQWYPEGVKQHVKETKLKLEDRSVVPRDVVRHMRSTDSQCGTVIDVNIDCAVKLIGTNCIIYPVNSKDLQHIWPFMYGDYIAYDCWLGKVYDLKNQIILKLSNGARCSMNTEDGAKLYDVCPHVSDSGLFFDDSYGFYPGQVLIGPAKIFSSVQWLSGVKPVLSTKSKFRVVVEEVQVVELKVTWITKSFCPGGTDSVSPPPSVITQENLGRVKRLGCFDHAQRQLGERCLYVFPAKVEPAKIAWECPEKNCAQGEGSMAKKVKRLLKKQVVRIMSCSPDTQCSRDHSMEDPDKKGESKTKSEAESASPEETPDGSASPVEMQDEGAEEPHEAGEQLPPFLLKEGRDDRLHSAEQDADDEAADDTDDTSSVTSSASSTTSSQSGSGTSRKKSIPLSIKNLKRKHKRKKNKITRDFKPGDRVAVEVVTTMTSADVMWQDGSVECNIRSNDLFPVHHLDNNEFCPGDFVVDKRVQSCPDPAVYGVVQSGDHIGRTCMVKWFKLRPSGDDVELIGEEEDVSVYDIADHPDFRFRTTDIVIRIGNTEDGAPHKEDEPSVGQVARVDVSSKVEVVWADNSKTIILPQHLYNIESEIEESDYDSVEGSTSGASSDEWEDDSDSWETDNGLVEDEHPKIEEPPIPPLEQPVAPEDKGVVISEEAATAAVQGAVAMAAPMAGLMEKAGKDGPPKSFRELKEAIKILESLKNMTVEQLLTGSPTSPTVEPEKPTREKKFLDDIKKLQENLKKTLDNVAIVEEEKMEAVPDVERKEDKPEGQSPVKAEWPSETPVLCQQCGGKPGVTFTSAKGEVFSVLEFAPSNHSFKKIEFQPPEAKKFFSTVRKEMALLATSLPEGIMVKTFEDRMDLFSALIKGPTRTPYEDGLYLFDIQLPNIYPAVPPHFCYLSQCSGRLNPNLYDNGKVCVSLLGTWIGKGTERWTSKSSLLQVLISIQGLILVNEPYYNEAGFDSDRGLQEGYENSRCYNEMALIRVVQSMTQLVRRPPEVFEQEIRQHFSTGGWRLVNRIESWLETHALLEKAQALPNGVPKASSSPEPPAVAELSDSGQQEPEDGGPAPGEASQGSDSEGGAQGLASASRDHTDQTSETAPDASVPPSVKPKKRRKSYRSFLPEKSGYPDIGFPLFPLSKGFIKSIRGVLTQFRAALLEAGMPECTEDK
With B1, the binding entry is reported as “binds”.
